From PubChem BioAssay AID1665 (Sanford-Burnham Center for Chemical Genomics, 2009)
Screen size: about 190,000 compounds; about 590 (0.31%) were called active. Inconclusive results, whose numbers are uncertain, are shown with a selection of clear calls.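 How the source made its calls: active means nuclear translocation activity above 50% at 5 µM, with a well cell count of 50 or more; inconclusive means wells under 50 cells across six images, flagged as toxic; inactive means the rest.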

experiment: modulators of beta-catenin nuclear translocation, primary screen, imaging, HeLa cells, immunofluorescence, high-content (AID 1665); conditions: at 5 µM, active compounds read high;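 further: per-cell ratio of nuclear to cytoplasmic median beta-catenin stain intensity; plate controls were DMSO negative control for no effect and GSK-3 inhibitor IX positive control for full effect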
Procedure, shortened: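 Signal – beta-catenin immunofluorescence imaging with DAPI · Test system – human HeLa cell line · Dosing – 5 µM primary single dose, 0.1% DMSO, 0.02–20 µM confirmation series · Measure – % activation, nuclear-to-cytoplasmic median beta-catenin signal ratio per cell · Incubation – 24 h compound exposure at 37°C, 5% CO2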

SMILES	nuclear translocation activity
CC1CC(=O)Nc2ccccc2N1S(=O)(=O)c1cccc(Cl)c1 (configuration not stated)	inactive: -2.9%
Cc1nc2ccccn2c1-c1csc(Nc2cccc(O)c2)n1	active: 75.4%
COC(=O)[C@@]1(Cc2ccc(OC)cc2)[C@H]2c3cc(C(=O)N(C)C)n(CCc4ccc(OC)c(Br)c4)c3C[C@H]2CN1C(=O)c1ccccc1	inconclusive: -9.4%
CCOC(=O)c1ccc(NC(=O)Nc2ccon2)cc1	active: 93.4%
CN1CCN(C2=Cc3ccc(Cl)cc3Sc3ccc(F)cc32)CC1	inconclusive: 4.9%
CCOP(=O)(c1ccccc1)c1nc(-c2ccccc2Cl)oc1N1CCCCC1 (configuration not stated)	inconclusive: 10.1%
C#CC(=O)N(c1cccc(OC)c1)C(C(=O)NC1CCCC1)c1cccs1 (configuration not stated)	inconclusive: 147%
CN(C)C=Nc1nonc1-c1ccccc1	inactive: -1.8%
O=C(Cn1nc(C(F)(F)F)cc1C1CC1)NCc1ccccc1F	inconclusive: -3.9%
Cc1c(C(=O)N/N=C/c2ccccc2)[nH]c2c([N+](=O)[O-])cccc12	active: 69.8%
CC(C)(C)n1ncc(Oc2ccccc2[N+](=O)[O-])c(Cl)c1=O	inconclusive: -3.1%
O=C(C1=C(O)/C(=C/c2ccc(O)cc2)CCC1)C(F)(F)F	inconclusive: 30.2%
CCOCCCNC(=O)/C(C#N)=C/c1cc(Br)c(O)c(Br)c1	active: 50.2%
Cc1ccc2c(c1C)OC(=O)CC2(C)C	inactive: 0.4%
COc1ccc(CNC[C@@H](CCCCN(C)Cc2ccc(OC)cc2)N2C[C@H](c3ccccc3)N(CCc3ccc(Cl)c(Cl)c3)C(=O)C2=O)cc1	inconclusive: 24.1%
O=C1CN(C(=O)COc2cccc(F)c2)c2ccccc2N1	inactive: -1.4%
O=C1c2ccccc2C(=O)N1CCCCN(C(=O)c1cccc([N+](=O)[O-])c1)c1ccc(Cl)cc1	inactive: -1.1%
CC(C)C[C@H](NC(=O)OC(C)(C)C)C(=O)N/N=C/C1=Cc2ccccc2OC1C (some centres not stated)	inconclusive: -238%
CNCC/C=C1/c2ccccc2CSc2ccccc21	inconclusive: 23.5%
CNc1ncnc(Sc2ccc(Cl)cc2)c1[N+](=O)[O-]	inactive: 0.5%
COc1cc(OC)cc(C(=O)N/N=C/c2ccc(OC)c(COc3ccc(F)cc3)c2)c1	active: 213%
Clc1ccc(-c2csc(-c3cccnc3)n2)s1	inactive: 0.1%
CCCCN(C)S(=O)(=O)c1ccc(C(=O)Nc2nnc(-c3ccco3)o2)cc1	inactive: 1.3%
CCCCCCCCCCCCCCCC[n+]1ccc(/C=N/O)cc1	inconclusive: 15.8%
OC(CNCCC1C=Nc2ccccc21)Cn1c2ccc(Cl)cc2c2cc(Cl)ccc21 (configuration not stated)	inconclusive: 9.9%

SMILES	nuclear translocation activity
COc1oc(-c2ccc(Cl)cc2)nc1C(F)(F)F	inactive: -5.3%
O=C(c1ccccc1F)N1CCN(CC2CC3C=CC2C3)CC1 (configuration not stated)	inactive: -5.7%
CCOC(=O)C(Oc1ccc2c(-c3ccccc3)cc(=O)oc2c1)c1ccccc1 (configuration not stated)	inactive: 0.7%
O=C(CSc1nnc(-c2cccs2)o1)Nc1cccc(S(=O)(=O)N2CCCCC2)c1	inactive: -0.3%
COc1ccc(CNC(=O)N[C@H](C(=O)O)C(C)C)cc1OC	inconclusive: 29.3%
COc1ccc2c(CC(=O)Nc3ccccc3OC)coc2c1	inactive: 1.5%
CC(C)(C)c1ccc(CN2C3=NCCCN3c3ccccc32)cc1	inconclusive: 8.2%
CC1(C)Oc2ccc3ccc(=O)oc3c2/C(=C/NC2CCCCC2)C1=O	inconclusive: 26.8%
c1ccc(C2Nc3ccccc3Oc3ccccc32)cc1 (configuration not stated)	inconclusive: 15.4%
CC(Oc1ccc(Cl)cc1Cl)C(=O)NCCC1=CCCCC1 (configuration not stated)	inactive: 0.3%
O=C(Oc1cccc2c(O)cccc12)c1ccccc1	inactive: -2.6%
C=CCc1cccc(C=Nc2cc(Br)ccc2O)c1O	inactive: -0.1%
CC1=NNC(=O)/C1=C\c1cn(-c2ccccc2)nc1-c1cccs1	inconclusive: 20.5%
Cc1oc2c(c1C(=O)NCc1cccnc1)C(=O)c1ccccc1C2=O	inconclusive: 40.6%
CCCCOc1ccc(C(=O)C(CN2CCOCC2)c2ccccc2)cc1 (configuration not stated)	inconclusive: -107%
COc1cccc2c1C(=O)c1c(O)c3c(c(O)c1C2=O)C[C@@](O)(C(C)=O)C[C@@H]3O[C@H]1C[C@H](N)[C@H](O)[C@H](C)O1	inconclusive: 496%
COCCOC(=O)c1[nH]c2c(c1C)C(=O)CC(c1ccccc1)C2 (configuration not stated)	active: 95.2%
CCOc1cc(-c2cc(-c3ccc(C)o3)nc(N)c2C#N)ccc1O	active: 54.9%
Cc1ccc(C(=O)C(C(=O)/C=C/c2ccccc2)=C2SCCCS2)cc1	inconclusive: 49.7%
O=C(Nc1ccc2c(c1)OCO2)c1ccc(NC2CC2)c([N+](=O)[O-])c1	inactive: 7.5%
Fc1ccccc1/C=N/NC(=S)Nc1ccc(Cl)cc1Cl	inconclusive: 60.4%
COc1nc(N/N=C/c2cc3c(cc2Br)OCO3)nc(N2CCOCC2)n1	inconclusive: -249%
CC(C)(c1ccccc1)c1ccc(OCC(O)CNC2CCN(Cc3ccccc3)CC2)cc1 (configuration not stated)	inconclusive: 27.7%
COc1cc(CNC(C)(C)CO)cc(Br)c1OCc1ccc(Cl)cc1Cl	inconclusive: 17.4%
CSC1=NC(C(Cl)(Cl)Cl)N=C(c2ccccc2)N1 (configuration not stated)	active: 75%

Quoted from above (2 entries):
SMILES	nuclear translocation activity
COc1ccc2c(CC(=O)Nc3ccccc3OC)coc2c1	inactive: 1.5%
CC(C)(C)c1ccc(CN2C3=NCCCN3c3ccccc32)cc1	inconclusive: 8.2%

More compounds:

SMILES	nuclear translocation activity
CN(C)c1ccc(/C=C/c2ccc3c4ccccc4ccc3[n+]2-c2ccccc2)cc1	inconclusive: 444%
COc1cc(C2Nc3cccc4cccc(c34)N2)cc(OC)c1O	inconclusive: 71.5%
CCOC(=O)c1c(C)[nH]c2c1-c1ccccc1C(=O)C2=O	inconclusive: 60.7%
CCOC(=O)c1cc(CC)sc1NC(=O)c1cc([N+](=O)[O-])ccc1N1CCOCC1	active: 59.3%
OC(CNCC1CCCO1)Cn1c2ccc(Br)cc2c2cc(Br)ccc21 (configuration not stated)	inconclusive: 17.9%
COc1cccc2c1C(=O)c1c(O)c3c(c(O)c1C2=O)C[C@@](O)(C(=O)CO)C[C@@H]3O[C@H]1C[C@H](N)[C@H](O)[C@H](C)O1	inconclusive: 436%
COc1ccc(N2CC(C(=O)N/N=C/c3ccc(C)cc3)CC2=O)cc1 (configuration not stated)	active: 54.5%
N#CC1=C(N)NC(SCc2ccc(Br)cc2)=C(C#N)C12CCCCC2	inconclusive: 22.3%
CC1CCCCC1NCC(=O)Nc1ccccc1-c1ccccc1 (configuration not stated)	inconclusive: 4.2%
Cc1[nH]c(N=Nc2ccccc2)nc1N=Nc1ccccc1	inactive: 1.1%
COc1ccc(S(=O)(=O)N2c3ccccc3OCC2C)cc1 (configuration not stated)	active: 111%
Cc1ccc(/C=N/NC(=O)C2CC(=O)N(c3ccccc3)C2)s1 (configuration not stated)	active: 57.1%
Cc1ccc(C)c(C2NC(=O)c3ccccc3N2)c1 (configuration not stated)	active: 64.4%
O=C1OC(c2cccs2)=N/C1=C\c1ccc(-c2ccccc2Cl)o1	inconclusive: 104%
Cc1ccc2nc(Cl)c3cc(C(=O)N(CCN(C)C)Cc4ccco4)sc3c2c1	inconclusive: 56%
CN(C)c1ccc(CNCCC2CCOC(C)(C)C2)cc1 (configuration not stated)	inactive: -4.1%
CCCCCOc1ccc(Br)cc1CSC(=N)N	active: 89.1%
CC(=O)Nc1ccc(NC2=C/C(=N/S(=O)(=O)c3cccs3)c3ccccc3C2=O)cc1	inconclusive: 73.8%
Cc1c(C(=O)OCc2ccccc2)[nH]c2c1C(=O)CC(c1ccco1)C2 (configuration not stated)	active: 120%
CCN1/C(=C/C=C/c2oc3ccc(-c4ccccc4)cc3[n+]2CC)Oc2ccc(-c3ccccc3)cc21	inconclusive: 33.3%
CSc1nc(Oc2ccc3ccccc3c2)c2sccc2n1	active: 86.2%
CCS(=O)(=O)c1cc([N+](=O)[O-])c(Sc2ccccc2N)s1	inactive: -2.4%
COc1ccc2[nH]c3c(c2c1)CCNC3C1CC=C(C)CC1 (configuration not stated)	active: 51.4%
OCCCNc1cc(-c2ccnc(Nc3cccc(Cl)c3)n2)ccn1	inconclusive: 105%

SMILES	nuclear translocation activity
NNC(=O)CSc1nnnn1-c1ccccc1	inactive: 0.8%
COc1ccc2cc3c(N)nn(C(=O)Cc4c[nH]c5ccccc45)c3nc2c1	inconclusive: 33.7%
O=S(=O)(c1ccc(N2CCN(Cc3ccc4c(c3)OCO4)CC2)nc1)N1CCOCC1	inactive: 1.3%
Cc1cc(/C=N/n2cnnc2)c(C)n1-c1ccccc1	inactive: 6.5%
O=C(Nc1ccc(F)cc1)N(CCCN1CCOCC1)Cc1cc2cc3c(cc2[nH]c1=O)OCCO3	inactive: -3.7%
CSc1nc(N(C)NC(=O)c2cccc(C)c2)c2ccccc2n1	active: 97.3%
CCCOc1ccc(C(=O)C(CN2CCOCC2)c2ccccc2)cc1 (configuration not stated)	inconclusive: -2.9%
COc1ccc(-n2nnnc2/C=C\Nc2ccccc2C(=O)c2ccccc2)cc1	active: 61.6%
COc1cc(NC(=O)c2cc(C(C)C)on2)c(OC)cc1Cl	inactive: -2.5%
C=CCOc1c(Br)cc(/C=N/O)cc1OCC	inactive: 0.1%
CC(=O)Nc1ccc(-c2ccc3nnc(C)n3n2)cc1	inconclusive: -2.4%
COc1ccc(C(=O)c2ccccc2)cc1	inconclusive: 0.8%
N#Cc1c(-c2ccccc2)cc(C2CC2)nc1N	inactive: -2.6%
Cc1ccc(-c2cc(-c3ccccc3C)[nH]n2)c(O)c1	inconclusive: 2.5%
CCCOc1ccc(C(=O)C(CCC(CNCC)C(=O)c2ccc(OCCC)cc2)CNCC)cc1 (configuration not stated)	inconclusive: 7.3%
CCOc1cc(/C=N/N=C(N)N)ccc1OCc1ccc(Cl)cc1	inconclusive: 3.1%
Cn1c(-[n+]2c(-c3ccccc3)cc(-c3ccccc3)cc2-c2ccccc2)nc2c([N+](=O)[O-])cccc21	inactive: -3.5%
Cc1cc2[nH]c3c(c[n+](C)c4ccccc34)c2cc1C	inconclusive: 19.2%
COc1ccc(-c2cc(-c3cccs3)nc(OC)c2C#N)cc1OC	active: 50.4%
O=C(Cn1cnc([N+](=O)[O-])c1)Nc1cc(Oc2ccc(Cl)cc2Cl)cc([N+](=O)[O-])c1	inconclusive: -7.1%
Cc1nc2c3cc(Cl)ccc3n(CCN3CCCCC3)c2s1	active: 96.7%

Three of the compounds above, as labelled records:
OC(CNCC1CCCO1)Cn1c2ccc(Br)cc2c2cc(Br)ccc21 (configuration not stated)
  nuclear translocation activity: inconclusive: 17.9%
NNC(=O)CSc1nnnn1-c1ccccc1
  nuclear translocation activity: inactive: 0.8%
O=C(Nc1ccc(F)cc1)N(CCCN1CCOCC1)Cc1cc2cc3c(cc2[nH]c1=O)OCCO3
  nuclear translocation activity: inactive: -3.7%
